Data as given in PubChem BioAssay AID1508597 (Cure First, 2020)

Aim: 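Knock-downs altering ovarian cancer cell survival with or without PARP inhibitor rucaparib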 (primary screen)
System: human ovarian carcinoma lines grown from tumours: OCI-P5x (papillary serous) and OCI-C5x (clear cell)
Reagents: siRNA pool against human genes, 1.25 pmol siRNA per well
Duration: 72 h or 96 h, depending on the cell culture
Conditions: rucaparib 20 µM (about IC30) or vehicle, present until read-out
Rucaparib or vehicle: Rucaparib
Cell line: OCI-C5x (clear cell)
Measurement: 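Luminescent ATP-based viability assay read 72 or 96 h after transfection, depending on culture, given as normalised percent viability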
Reading the numbers: viability, normalised: higher = more viable cells remaining
Active means: 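a well counts as a hit if its normalised viability is under 80 percent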
Calls: active = viability under 80%; inactive = viability 80% or more
This is an unselected part of the about 2,100 reagents, under one of the conditions tested. 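Calls flag viability under 80% in either arm, not effects specific to rucaparib; the reference for percent is not stated.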 Entries without a mark were called inactive. A reagent listed more than once was tested more than once; the source does not tell the runs apart. Not stated in the record: the 100% reference.

For RPS6KA6 (GeneID 27330), technical replicate 1, the entry reads viability, normalised (%) = 49.6 (active).
RPS6KA6 (GeneID 27330), technical replicate 2 gave viability, normalised (%) = 47.6 (active).
RPS6KA6 (GeneID 27330), technical replicate 3 scored viability, normalised (%) = 42.2 (active).
For H1-9P (GeneID 373861), technical replicate 1, the entry reads viability, normalised (%) = 40.7 (active).
With H1-9P (GeneID 373861), technical replicate 2, the values are viability, normalised (%) = 31.3 (active).
H1-9P (GeneID 373861), technical replicate 3 showed viability, normalised (%) = 38.1 (active).
TNKS2 (GeneID 80351), technical replicate 1 gave viability, normalised (%) = 69.3 (active).
With TNKS2 (GeneID 80351), technical replicate 1, the values are viability, normalised (%) = 39.6 (active).
With TNKS2 (GeneID 80351), technical replicate 2, the entry reads viability, normalised (%) = 34.2 (active).
For TNKS2 (GeneID 80351), technical replicate 2, the entry reads viability, normalised (%) = 72.5 (active).
For TNKS2 (GeneID 80351), technical replicate 3 the deposit lists viability, normalised (%) = 70.7 (active).
TNKS2 (GeneID 80351), technical replicate 3 gave viability, normalised (%) = 26.1 (active).
MYLK2 (GeneID 85366), technical replicate 1 scored viability, normalised (%) = 31.3 (active).
MYLK2 (GeneID 85366), technical replicate 2 scored viability, normalised (%) = 46.9 (active).
For MYLK2 (GeneID 85366), technical replicate 3, the entry reads viability, normalised (%) = 36.3 (active).
With GLYR1 (GeneID 84656), technical replicate 1, the entry reads viability, normalised (%) = 41.4 (active).
GLYR1 (GeneID 84656), technical replicate 2 showed viability, normalised (%) = 27.8 (active).
With GLYR1 (GeneID 84656), technical replicate 3, the entry reads viability, normalised (%) = 48.7 (active).
For TYK2 (GeneID 7297), technical replicate 1, the values are viability, normalised (%) = 62.2 (active).
For TYK2 (GeneID 7297), technical replicate 2 the deposit lists viability, normalised (%) = 60.7 (active).
For TYK2 (GeneID 7297), technical replicate 3, the entry reads viability, normalised (%) = 68.1 (active).
MAU2 (GeneID 23383), technical replicate 1 gave viability, normalised (%) = 47.7 (active).
For MAU2 (GeneID 23383), technical replicate 2, the entry reads viability, normalised (%) = 35.1 (active).
MAU2 (GeneID 23383), technical replicate 3 showed viability, normalised (%) = 57.4 (active).
For NIN (GeneID 51199), technical replicate 1 the deposit lists viability, normalised (%) = 63.3 (active).
NIN (GeneID 51199), technical replicate 2 showed viability, normalised (%) = 46.1 (active).
With NIN (GeneID 51199), technical replicate 3, the entry reads viability, normalised (%) = 38.2 (active).
CTCF (GeneID 10664), technical replicate 1 showed viability, normalised (%) = 45.8 (active).
With CTCF (GeneID 10664), technical replicate 2 the deposit lists viability, normalised (%) = 41.6 (active).
For CTCF (GeneID 10664), technical replicate 3, the entry reads viability, normalised (%) = 42.2 (active).
OARD1 (GeneID 221443), technical replicate 1 showed viability, normalised (%) = 69.1 (active).
OARD1 (GeneID 221443), technical replicate 2 scored viability, normalised (%) = 62.3 (active).
For OARD1 (GeneID 221443), technical replicate 3 the deposit lists viability, normalised (%) = 54.5 (active).
